# PubChem BioAssay AID1224826, NIAID, 2016
# Screen: 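Knock-downs that raise or lower Tnf reporter signal after endotoxin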 (primary screen)
# Cell system: RAW264.7 G9 macrophages from mouse bearing reporters for p65 (GFP) and the Tnf promoter (mCherry)
# Reagents: siRNA pool against mouse genes, 100 nM
# Time to read-out: 16 h of LPS stimulation, after 2 days of siRNA transfection
# Treatment: bacterial lipopolysaccharide (Salmonella minnesota R595), 10 ng/ml
# Measurement: 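Imaged Tnf reporter mCherry in nuclei, minus background, normalised per plate to the median and expressed as robust z-scores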
# Scale: Tnf reporter robust z-score: higher = stronger Tnf promoter reporter signal after LPS; Tnf reporter intensity: higher = stronger Tnf promoter reporter signal
# Active means: 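Called active when robust z-score is at most -1.3, matching the median of the Tlr4 knock-down control, or over 3; control wells and wells with under 50 cells never active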
# Calls: active = Tnf reporter clearly lowered or raised; inactive = no clear change in Tnf reporter
# In all, the deposit lists about 17,000 reagents; shown is a random part of them. About 1,110 of them (6.6%) were called active. 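Active means lowered or raised reporter signal; replicate intensities are raw and not normalised per plate.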 A number with no mark means an inactive call.
Gene,Tnf reporter robust z-score,fewer than 50 cells in well,"Tnf reporter intensity, replicate 1","Tnf reporter intensity, replicate 2"
Gpr65,-0.2,enough cells in well,189,294
Bzw2,1.34,enough cells in well,0,240
Plekhs1,-0.37,enough cells in well,153,170
Dpy19l3,2.17,enough cells in well,300,340
Cyp4f15,-1.02,enough cells in well,116,121
Gzmd,0.76,enough cells in well,309,206
Spry4,2.81,enough cells in well,206,107
1700120K04Rik,-1.52 (active),enough cells in well,105,40.4
Efs,-0.97,enough cells in well,167,140
Zfp677,0.83,enough cells in well,216,199
Mpv17,-0.86,enough cells in well,140,86.6
Gnb5,-1.22,enough cells in well,170,79.5
4933411G06Rik,,fewer than 50 cells per well; well left out of calls,179,95.3
Zkscan3,-0.36,enough cells in well,103,116
Tufm,1.08,enough cells in well,209,70
Ppp3cb,0.15,enough cells in well,256,204
Sephs2,0.55,enough cells in well,232,191
Krt222,0.02,enough cells in well,177,149
Cd52,-1.55 (active),enough cells in well,71.2,94.4
Drc3,,fewer than 50 cells per well; well left out of calls,180,39.2
Rpia,0.36,enough cells in well,160,126
Or4e1,-0.67,enough cells in well,115,111
Irgq,0.68,enough cells in well,185,295
Prkaca,-0.44,enough cells in well,186,120
Sorbs3,-0.18,enough cells in well,237,224
Ppbp,0.45,enough cells in well,230,273
Or14c39,-0.9,enough cells in well,131,84.7
Sdhb,-0.69,enough cells in well,228,154
Slc25a1,0.56,enough cells in well,229,190
Gsdma2,,fewer than 50 cells per well; well left out of calls,66.5,24.4
Or2y3,0.32,enough cells in well,226,116
Zfp809,-0.7,enough cells in well,173,140
Acadsb,1.28,enough cells in well,252,230
Tapbp,-0.99,enough cells in well,184,71
Or8g51,-0.69,enough cells in well,64.7,148
Pwwp3a,-0.29,enough cells in well,181,151
P3h4,-0.81,enough cells in well,301,25.8
Rerg,0.97,enough cells in well,139,201
Or10d4b,-0.68,enough cells in well,87.6,127
Krt76,0.94,enough cells in well,199,219
Prdm1,-0.6,enough cells in well,201,149
Serhl,-0.41,enough cells in well,231,193
Foxd2,0.13,enough cells in well,315,202
Gpr101,-0.56,enough cells in well,172,242
Grid1,-1.43 (active),enough cells in well,142,74.8
Cdin1,-0.3,enough cells in well,239,146
Nolc1,-0.81,enough cells in well,167,84.4
Rab5a,-0.61,enough cells in well,256,156
Or2bd2,,fewer than 50 cells per well; well left out of calls,253,79.5
Tmem63a,-0.38,enough cells in well,206,150
Rab9,0.02,enough cells in well,378,162
Ang2,0.58,enough cells in well,193,212
Ntn3,-0.84,enough cells in well,213,99.7
Cenpq,,fewer than 50 cells per well; well left out of calls,175,33.6
Ubald2,,fewer than 50 cells per well; well left out of calls,145,26.8
Lhx4,0.23,enough cells in well,198,163
Rfwd3,0.16,enough cells in well,233,201
Ncmap,-0.53,enough cells in well,141,126

Reformatted: 3 of the entries above
Gene	Tnf reporter robust z-score	fewer than 50 cells in well	Tnf reporter intensity, replicate 1	Tnf reporter intensity, replicate 2
Cdin1	-0.3	enough cells in well	239	146
Nolc1	-0.81	enough cells in well	167	84.4
Rab5a	-0.61	enough cells in well	256	156
